Test results reported in US20100190849A1, “Novel Clerodanes and Methods for Repelling Arthropods” (priority 2006, published 2010).
Some results were stated once for a whole list of compounds, not compound by compound. At least one compound was matched to its structure with a doubt left.

System: black imported fire ants, Solenopsis richteri Forel
Assay: Multiple-choice digging bioassay, fire ant workers
Format: in vivo
Details: S. richteri, two colonies; in sand, 24 h
Protocol: The repellency of the two terpenoids, callicarpenal and intermedeol, against workers of red imported fire ants, Solenopsis invicta Buren, black imported fire ants, Solenopsis rickeri Forel, and a hybrid of these two species was evaluated using multiple-choice digging bioassays (Tables 9 & 10). […] Callicarpenal and intermedeol were compared with octanoic acid, a known fire ant repellant, at the 25.00 ppm level using two-choice digging bioassays (FIGS. 3 and 4).
Ants: Two Solenopsis invicta colonies were collected in Sharkey County, Mississippi, and two Solenopsis richteri colonies were collected in Granada County, Mississippi. Two colonies of the hybrid (S. invicta×S. richteri) colony were collected in Sunflower County, Mississippi. Fire ant mounds were shoveled and placed in 19-L plastic buckets. The inside wall of the bucket was then coated with baby powder (Cumberland Swan Holdings, Inc., Smyrna, Tenn.) to prevent ant escape. Following the water-drip method developed by Bank et al. (Banks, W. A., et al., Techniques for collecting, rearing, and handling imported fire ants, USDA SEA AATS-S-21 (1981)), ants were separated and then placed in a 44.5×60.0×13.0 cm plastic tray with inside walls coated with Fluon® (Ag Fluoropolymers, Chadds Ford, Pa.). Distilled water and 15% (w/v) sucrose water solution in separated test tubes which were plugged with cotton balls were placed in the trays. […]

SMILES | concentration at which significant repellency was shown [ppm]
CC1=CCC[C@@H]2[C@@](C)(CC=O)[C@H](C)CC[C@@]12C [callicarpenal, 13,14,15,16-tetranorclerod-3-en-12-al] | ≥ 6.25
C=C(C)C1CCC2(C)CCCC(C)(O)C2C1 [intermedeol, (4S,5S,7R,10S)-eudesm-11-en-4-ol] | ≥ 6.25
